Source: US20140243268A1 (GEORGIA REGENTS RESEARCH INSTITUTE, published 2014)
Results are given in words; binding and its absence hold for the method and conditions named. In cells and extracts the contact can be indirect. Some entries that bind do so weakly or less than the wild type.

Chains of the proteins cited; added tags and fusions are not shown. Lines headed by an entry give the natural chain unless they say otherwise; changes in a name come on top. A line that says so, or that is headed by a name, gives the form on record, which may keep a tag or linker.
HA-Erbin (pKH3-HA-Erbin) (Q96RT1, form named): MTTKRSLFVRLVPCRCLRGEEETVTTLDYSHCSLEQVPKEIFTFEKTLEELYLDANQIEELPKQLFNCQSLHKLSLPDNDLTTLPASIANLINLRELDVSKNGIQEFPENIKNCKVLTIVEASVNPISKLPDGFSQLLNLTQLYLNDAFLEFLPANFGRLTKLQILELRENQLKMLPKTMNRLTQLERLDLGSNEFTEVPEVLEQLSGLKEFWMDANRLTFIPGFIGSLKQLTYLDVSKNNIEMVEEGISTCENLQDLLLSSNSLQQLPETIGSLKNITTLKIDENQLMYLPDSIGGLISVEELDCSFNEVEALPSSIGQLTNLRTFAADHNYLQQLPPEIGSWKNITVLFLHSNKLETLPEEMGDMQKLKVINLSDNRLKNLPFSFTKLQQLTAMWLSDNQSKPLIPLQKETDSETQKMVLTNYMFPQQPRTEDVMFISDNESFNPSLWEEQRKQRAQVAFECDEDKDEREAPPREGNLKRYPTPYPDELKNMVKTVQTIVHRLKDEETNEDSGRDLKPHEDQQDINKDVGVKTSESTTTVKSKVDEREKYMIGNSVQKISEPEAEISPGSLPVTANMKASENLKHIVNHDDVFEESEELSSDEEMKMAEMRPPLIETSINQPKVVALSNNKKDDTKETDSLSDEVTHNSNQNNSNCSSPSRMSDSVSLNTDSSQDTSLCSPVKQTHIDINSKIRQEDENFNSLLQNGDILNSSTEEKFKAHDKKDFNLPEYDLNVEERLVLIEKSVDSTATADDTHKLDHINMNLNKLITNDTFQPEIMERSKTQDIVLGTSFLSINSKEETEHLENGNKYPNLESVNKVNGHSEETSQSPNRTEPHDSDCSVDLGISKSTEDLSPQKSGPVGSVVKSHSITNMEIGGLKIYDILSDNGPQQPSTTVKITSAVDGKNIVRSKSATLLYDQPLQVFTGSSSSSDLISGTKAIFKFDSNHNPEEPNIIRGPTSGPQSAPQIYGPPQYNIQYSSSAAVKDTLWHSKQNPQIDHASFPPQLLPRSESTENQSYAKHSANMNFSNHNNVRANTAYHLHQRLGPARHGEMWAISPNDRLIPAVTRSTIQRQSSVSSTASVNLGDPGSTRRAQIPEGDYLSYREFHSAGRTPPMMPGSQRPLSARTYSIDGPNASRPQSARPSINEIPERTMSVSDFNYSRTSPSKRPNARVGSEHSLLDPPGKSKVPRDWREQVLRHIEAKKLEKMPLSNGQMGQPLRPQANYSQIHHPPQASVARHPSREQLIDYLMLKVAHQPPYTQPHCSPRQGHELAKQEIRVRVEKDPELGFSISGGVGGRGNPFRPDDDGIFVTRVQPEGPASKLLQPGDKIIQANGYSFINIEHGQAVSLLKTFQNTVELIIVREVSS

Molecular target: Myc-Erbin (pRK5-Myc-Erbin) (UniProt Q96RT1)
Assay: co-precipitation from co-transfected HEK293 cells (data not shown)

binding: binds
Substance: HA-Erbin (pKH3-HA-Erbin) (from UniProt Q96RT1 1-1371)
